Measured values: patent US20210302366A1, “Method for Pathogen Detection” (priority 2020, published 2021)
At least one structure is not confirmed: it was looked up by name or label, or the drawing left a doubt.

System: Escherichia coli K12
Assay: electrical signal under different dosages of interacting agent, Escherichia coli K12
Format: cell-based

`NC[C@H]1O[C@H](O[C@H]2[C@H](O)[C@@H](O[C@H]3O[C@H](CO)[C@@H](O)[C@H](N)[C@H]3O)[C@H](N)C[C@@H]2N)[C@H](O)[C@@H](O)[C@@H]1O` [Kanamycin] was tested, and the “blips identified in the electrical signal” value (dosage of 50 μg/mL, first several hours of culturing) was “no blips” and the “blips identified in the electrical signal” value (dosage of 22.5 m/mL) was “one blip at the 2nd hour”.
